Results are given in words; binding and its absence hold for the method and conditions named. In cells and extracts the contact can be indirect. Some results given as binding are weak or reduced against the parent protein; the word gives no strength. Tags and fused reporters may be left off the sequences shown.
Target: PCBP2 (mouse (endogenous in murine hepatocyte 3A cells)) (UniProt Q61990)
Experiment: co-IP; immunoprecipitation with rabbit polyclonal anti-PCBP2, mouse monoclonal anti-SYNCRIP or preimmune IgG from 2 mg protein extract of murine hepatocytes; IP Lysis Buffer (150 mM NaCl, 50 mM Tris-HCl pH 7.5, 1% Triton X-100), 4°C overnight; washes with Net Gel Buffer and RIPA Buffer; western …

Amino acid sequences for entries named in this document (tags omitted).
UniProt Q61990: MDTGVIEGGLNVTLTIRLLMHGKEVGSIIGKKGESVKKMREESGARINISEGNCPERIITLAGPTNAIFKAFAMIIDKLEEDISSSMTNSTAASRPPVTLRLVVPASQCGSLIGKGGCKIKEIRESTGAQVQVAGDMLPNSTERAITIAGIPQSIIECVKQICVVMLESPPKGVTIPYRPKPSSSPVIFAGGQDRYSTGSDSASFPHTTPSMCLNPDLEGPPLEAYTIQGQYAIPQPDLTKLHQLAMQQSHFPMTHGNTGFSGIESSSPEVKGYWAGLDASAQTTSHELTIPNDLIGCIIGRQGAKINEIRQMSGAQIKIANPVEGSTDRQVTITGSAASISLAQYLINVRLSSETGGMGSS

binding: binds
B1: Synaptotagmin-binding Cytoplasmic RNA-Interacting Protein (protein, UniProt Q7TMK9 1-623)
chain: MATEHVNGNGTEEPMDTTSAVIHSENFQTLLDAGLPQKVAEKLDEIYVAGLVAHSDLDERAIEALKEFNEDGALAVLQQFKDSDLSHVQNKSAFLCGVMKTYRQREKQGTKVADSSKGPDEAKIKALLERTGYTLDVTTGQRKYGGPPPDSVYSGQQPSVGTEIFVGKIPRDLFEDELVPLFEKAGPIWDLRLMMDPLTGLNRGYAFVTFCTKEAAQEAVKLYNNHEIRSGKHIGVCISVANNRLFVGSIPKSKTKEQILEEFSKVTEGLTDVILYHQPDDKKKNRGFCFLEYEDHKTAAQARRRLMSGKVKVWGNVGTVEWADPIEDPDPEVMAKVKVLFVRNLANTVTEEILEKSFSQFGKLERVKKLKDYAFIHFDERDGAVKAMEEMNGKDLEGENIEIVFAKPPDQKRKERKAQRQAAKNQMYDDYYYYGPPHMPPPTRGRGRGGRGGYGYPPDYYGYEDYYDYYGYDYHNYRGGYEDPYYGYEDFQVGARGRGGRGARGAAPSRGRGAAPPRGRAGYSQRGGPGSARGVRGARGGAQQQRGRGVRGARGGRGGNVGGKRKADGYNQPDTKRRQTNNQNWGSQPIAQQPLQGGDHSGNYGYKSENQEFYQDTFGQQWK

Reference: article PMC12221297, “Negative regulation of miRNA sorting into EVs is mediated by the capacity of RBP PCBP2 to impair the SYNCRIP-dependent miRNA loading”
